Consider 57 compounds from PubChem BioAssay AID2685 (National Center for Advancing Translational Sciences (NCATS), 2010).

This assay in a line: qHTS Assay for Lipid Storage Modulators in Drosophila S3 Cells.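 For cell number change: cells counted by Cell Tracker Red CMTPX staining in the red channel.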 The settings on record: BODIPY lipid droplet fluorescence, 18-24 h; for cell number change: measured here: cell count max response, cells fed with added oleic acid. The gist of the method:
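Laser-scanning cytometry quantifies lipid droplet accumulation (500–530 nm total intensity; droplet/cell object ratio) in oleic acid-fed (400 uM added) Drosophila S3 cells treated with a concentration series. 20 uM Triacsin C defined 100% inhibition.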
Background: In qHTS, concentration-response curves come from the screen itself.

Setting [1] is: measured here: cell number channel AC50, cells fed with added oleic acid.
Setting [2] is: measured here: lipid fluorescence (Fed channel) AC50, cells fed with added oleic acid.

This is one part of the list. Further columns of the screen follow, without active or inactive calls. Most of these compounds were active or inconclusive in the main read-out, so they are no random draw. The note in brackets gives the kind of curve behind each potency; many fits are weak.

As usually defined, the AC50 is the concentration at which the activity in the assay is half-maximal. On to `Cc1cc(NC(=O)CSc2nc(=O)cc(N)n2-c2ccc(Cl)cc2)no1`, for which the cell number change was found to be 11.8%. Besides, under setting [1], the AC50 is 1.3 µM [falling, partial curve, poor fit].

As for `Cc1ccc(CN(C(=O)c2ccccc2C)C2CCS(=O)(=O)C2)o1` (centres undefined), the cell number change was -20.7%.

For `Cc1cc(Cl)ccc1OCC(O)CN1C(C)CCCC1C` (centres undefined), the cell number change is -35.4%. Besides, the AC50 under setting [1] was 0.164 µM [falling, full curve]. In addition, the AC50 under setting [2] is 2.06 µM [falling, partial curve].

For `CCc1cc(=O)oc2cc(C)cc(OCC(=O)N3CCC(C(=O)NC(C)C)(c4ccccc4)CC3)c12`, the cell number change is -40.6%. Besides, the AC50 under setting [1] was 4.11 µM [falling, full curve]. Besides, the AC50 under setting [2] is 14.6 µM [falling, partial curve].

With `c1nnnn1C12CC3CC(CC(C3)C1)C2`, the cell number change is 9.37%. Further, the AC50 under setting [2] was 18.4 µM [falling, single point].

For the compound `CC(=O)NC(=O)c1ccc(-c2ccc(Cl)cc2)o1`, the cell number change is -27.1%. In addition, the AC50 under setting [2] is 16.4 µM [falling, partial curve].

`CC(=O)NC(C)c1cc(Cl)c2cccnc2c1O` (centres undefined): the cell number change was 16.9%. In addition, under setting [2], the AC50 was 1.16 µM [rising, single point].

On to `COc1ccc(Cl)c(Cn2c(NCc3ccccn3)nc3c2c(=O)n(C)c(=O)n3C)c1`, for which the cell number change was 9.53%. The AC50 under setting [2] is 29.1 µM [rising, single point].

Consider `Cc1cccc(-n2ncc3c(N4CCC(C)CC4)ncnc32)c1`, for which the cell number change was found to be 4.4%. Also, the AC50 under setting [1] is 0.651 µM [falling, single point].

For `CCSC1=NCCN1S(=O)(=O)c1ccc2ccccc2c1`, the cell number change was -0.246%. Further, the AC50 under setting [1] was 6.51 µM [falling, single point].

In the case of `CC(C)Oc1ccc(S(=O)(=O)N2CCOCC2)cc1NC(=O)C1COc2ccccc2O1` (centres undefined), the cell number change is -20.9%. Moreover, the AC50 under setting [2] is 20.6 µM [falling, single point].

On to `CCOc1ccc(CCNC(=O)c2ccc(Cl)c(S(=O)(=O)N3CCOCC3)c2)cc1OCC`, for which the cell number change was found to be 3.21%.

`CCCn1c(N)c(N(CCOC)C(=O)Cc2ccc(S(=O)(=O)N3CCOCC3)s2)c(=O)[nH]c1=O`: the cell number change was -18.5%.

With `CCOc1ccc(C(=O)Nc2cccc(C)n2)cc1`, the cell number change is -55.7%. In addition, under setting [1], the AC50 was 7.31 µM [falling, partial curve].

For the compound `Cc1cccc2sc(NNC(=O)c3ccc(S(=O)(=O)N4CCCC(C)C4)cc3)nc12` (centres undefined), the cell number change is -19.2%. The AC50 under setting [2] is 0.0058 µM [falling, full curve, poor fit].

`Cc1ccc(-c2nn(-c3cccc(F)c3)cc2CN(Cc2nccn2C)C(C)C)o1`: the cell number change is -62.3%. For the same compound, under setting [1], the AC50 was 11.6 µM [falling, partial curve]. Also, under setting [2], the AC50 was 10.3 µM [falling, partial curve].

Take `Cc1cc(-c2ccc(C)c(S(=O)(=O)NCC3CCN(Cc4ccc(F)cc4)CC3)c2)on1`: the cell number change turned out to be 15.9%. For the same compound, under setting [2], the AC50 was 0.366 µM [rising, partial curve, poor fit].

As for `Cc1ccc(S(=O)(=O)N2CCN(C(C)CC(=O)O)CC2)cc1` (centres undefined), the cell number change was -138%. The AC50 under setting [1] was 29.1 µM [falling, partial curve]. Under setting [2], the AC50 was 29.1 µM [falling, partial curve].

Take `Cc1nc(CSc2ccc(Cl)cc2)cc(N2CC(C)OC(C)C2)n1` (centres undefined): under setting [1], the AC50 was 1.03 µM [rising, full curve, poor fit].

`Cc1nc2ccccn2c1C(=O)N=Nc1c(O)[nH]c2ccccc12`: the cell number change was 2.04%.

Take `COc1cccc(C(=O)NC(c2ccccc2)C2CCCC2)c1` (centres undefined): the cell number change is -0.637%. The AC50 under setting [1] was 0.103 µM [rising, full curve, poor fit]. In addition, the AC50 under setting [2] is 0.651 µM [rising, partial curve, poor fit].

In the case of `O=C(CN1C(=O)NC2(CCCC2)C1=O)NNC(=O)c1ccc(Cl)cc1`, the cell number change turned out to be 3.55%. The AC50 under setting [2] was 0.461 µM [rising, partial curve].

On to `C=C(C)CN1CCN(c2c(CCC#N)c(C)c(C#N)c3nc4ccccc4n23)CC1`, for which the cell number change stood at 127%. For the same compound, the concentration at half-maximal activity (AC50) under setting [1] was 0.291 µM [rising, full curve]. Further, under setting [2], the AC50 was 0.259 µM [rising, full curve].

As for `O=C(N1CCOCC1)N1CCC(n2nnc3ccccc32)CC1`, the cell number change was determined as 4.91%. Besides, the AC50 under setting [2] is 6.51 µM [rising, single point].

Turning to `O=C(Cn1ncc2c3ccccc3n(Cc3ccccc3)c2c1=O)N1CCN(c2ncccn2)CC1`, the cell number change is 23.7%. Besides, the AC50 under setting [1] is 0.517 µM [rising, full curve, poor fit]. The concentration at half-maximal activity (AC50) under setting [2] is 1.16 µM [rising, full curve].

`Cc1ccc(S(=O)(=O)CCC(=O)OCc2ccccc2)cc1`: the cell number change is -2.15%. Besides, the AC50 under setting [1] was 0.517 µM [falling, single point].

Regarding `CC(OC(=O)c1ccc(Br)o1)C(=O)Nc1ccc2c(c1)OCCO2` (centres undefined), the cell number change is 17.8%. For the same compound, the AC50 under setting [2] is 23.1 µM [rising, single point].

On to `Cc1ccc(Cn2c(NCCCn3ccnc3)nc3c2c(=O)n(C)c(=O)n3C)cc1`, for which the AC50 under setting [1] is 0.164 µM [rising, full curve].

With `CCOc1ccc(CC(=O)Nc2sc(Cc3ccccc3)c(C)c2C(N)=O)cc1OCC`, the cell number change is -22.1%. The AC50 under setting [2] is 10.3 µM [falling, partial curve, poor fit].

Take `Cc1ccc(C)c(C(=O)Nc2c(C(N)=O)oc3ccccc23)c1`: the AC50 reads like this: under setting [1], 3.66 µM [rising, partial curve]; under setting [2], 3.26 µM [rising, partial curve].

Take `CCOc1ccc(C2CC(=O)NC3=C2C(=O)CCC3)cc1` (centres undefined): the cell number change turned out to be 15.9%. The AC50 under setting [2] is 0.0058 µM [falling, full curve, poor fit].

On to `Cc1cc(OCC(O)CN)ccc1Cl` (centres undefined), for which the cell number change is -31.1%. Besides, the AC50 under setting [1] was 29.1 µM [falling, single point]. Moreover, the AC50 under setting [2] was 5.8 µM [falling, full curve].

Turning to `COC(=O)c1ccc(=O)n(Cc2ccc3c(c2)OCO3)c1`, the cell number change stood at 3.91%. Further, under setting [2], the AC50 was 0.82 µM [rising, full curve, poor fit].

`C1CCN(CCCNC2C3CC4CC(C3)CC2C4)C1` (centres undefined): the cell number change was -6.52%. The AC50 under setting [1] is 0.116 µM [rising, full curve, poor fit].

Take `Cc1oc(-c2ccc(Cl)cc2)[n+]([O-])c1C`: the cell number change was -3.37%. Moreover, the AC50 under setting [2] was 6.51 µM [rising, single point].

Regarding `Cc1ccc2c3c1C1(C(=O)N3C(C)(C)CC2C)C(C#N)=C(N)Oc2cc(O)ccc21` (centres undefined), the cell number change is -36.2%. For the same compound, the AC50 under setting [1] was 32.6 µM [falling, single point].

Regarding `CCN(CCCNS(=O)(=O)c1cc(-c2cc(C)no2)ccc1C)Cc1ccccc1`, the cell number change was determined as 30.8%. Also, the AC50 under setting [1] is 0.00461 µM [rising, full curve, poor fit].

With `CC(=O)N=c1ncn(CC(COC(C)=O)OC(C)=O)c2nc[nH]c12` (centres undefined), the cell number change is -41%. Moreover, the AC50 under setting [1] is 0.0326 µM [falling, full curve]. For the same compound, the AC50 under setting [2] was 25.9 µM [falling, partial curve, poor fit].

`COc1ccc(-c2nn(C)c(=O)c3ccccc23)cc1NS(C)(=O)=O`: the cell number change was -2.72%. Besides, under setting [2], the AC50 was 14.6 µM [rising, single point].

With `CSc1nc2nc3c(cc2c(=O)n1-c1cccc(C)c1)COC(C)(C)C3`, the cell number change was -8.24%. Further, the AC50 under setting [2] is 0.164 µM [falling, full curve].

As to `CCN1C(=O)C(NC(C)=O)c2cc(OC)ccc21` (centres undefined), the cell number change is -23.2%. Moreover, under setting [1], the AC50 is 4.11 µM [falling, full curve, poor fit]. The AC50 under setting [2] was 3.66 µM [falling, full curve, poor fit].

For the compound `CC1CC(C)CN(S(=O)(=O)c2ccc3c(c2)oc(=O)n3CC(=O)N2CCOCC2)C1` (centres undefined), the AC50 is, setting by setting: under setting [1], 2.59 µM [rising, partial curve]; under setting [2], 1.16 µM [rising, full curve, poor fit].

With `CCN(CC)CCCNC(=O)C1CCN(C(=O)c2cc3sccc3n2Cc2ccc(F)cc2)CC1`, the cell number change is -21.3%. Moreover, under setting [2], the AC50 was 3.26 µM [rising, full curve, poor fit].

Turning to `CCNC(=O)CCn1nc(-c2ccc(C)cc2)c2ccccc2c1=O`, the cell number change came to 20.5%.

Consider `O=C(CCCSc1ccccc1)Nc1nc(-c2ccco2)c(-c2ccco2)s1`, for which the cell number change was -15.8%. The AC50 under setting [2] is 6.51 µM [rising, partial curve, poor fit].

Take `O=C(CCc1ccccc1)NNC(=O)Cc1ccccc1`: the cell number change stood at 28.2%. Moreover, the AC50 under setting [2] was 20.6 µM [rising, partial curve].

`O=C(NCc1ccccn1)c1cccc(NS(=O)(=O)c2ccccc2)c1`: the cell number change was -7.47%. Moreover, under setting [2], the AC50 is 16.4 µM [falling, single point].

As to `C=CCn1c(SC/C=C/c2ccccc2)nnc1-c1sc(N)nc1C`, the AC50 under setting [2] is 0.13 µM [rising, full curve, poor fit].

Regarding `COc1cccc(C(=O)OCCN(C)C(C)(C)C)c1`, the cell number change was -59%. In addition, the AC50 under setting [1] is 0.92 µM [falling, full curve, poor fit]. The AC50 under setting [2] is 0.651 µM [rising, full curve].

With `CCCNC(=O)C(Cc1ccccc1C)NC(=O)c1ccc(C(F)(F)F)cc1` (centres undefined), the cell number change was -3.49%. Also, the AC50 under setting [2] was 0.116 µM [rising, full curve].

Regarding `Cc1ccc(S(=O)(=O)N2CCN(C(=O)Cn3nc(C)c([N+](=O)[O-])c3C)CC2)cc1`, the cell number change was 42%. Also, the AC50 under setting [1] was 25.9 µM [rising, single point].

Regarding `CCC(CC)C(=O)Nc1ccncc1`, the cell number change is 108%. Further, the AC50 under setting [1] was 16.4 µM [rising, partial curve].

Consider `Cc1n[nH]c(C)c1N1C(=O)c2cccc3cc(Br)cc(c23)C1=O`, for which the cell number change came to 33.6%. Moreover, the AC50 under setting [1] was 8.2 µM [rising, partial curve]. In addition, the AC50 under setting [2] was 13 µM [rising, partial curve].

Turning to `COc1ccc(-c2cn[nH]c2C)cc1`, the cell number change stood at 24.1%. Also, the AC50 under setting [2] was 9.2 µM [rising, partial curve].

In the case of `CC1=NN(C(N)=S)C(=O)C1N=Nc1cccc(Cl)c1C` (centres undefined), the cell number change is -15.8%. The AC50 under setting [2] was 29.1 µM [falling, single point].

As for `O=c1oc(CCO)cc2ccc(C#Cc3ccsc3)cc12`, the cell number change was -11.9%. Besides, the AC50 under setting [2] is 0.103 µM [falling, full curve, poor fit].

As to `COc1cc(NC(=O)COC(=O)CSc2ccc3ccccc3c2)c(C)cc1[N+](=O)[O-]`, the cell number change came to 10.7%. The AC50 under setting [1] was 0.82 µM [rising, full curve]. Besides, the AC50 under setting [2] is 1.3 µM [rising, partial curve].
